Experimental data taken from patent publication US7364719B2, “Vasoregulating compounds and methods of their use” (The United States of America as represented by the …, priority 2002, dated 2008).
At least one compound was matched to its structure with a doubt left.

System: hypertensive SHR rats
Assay: Arterial blood pressure in hypertensive SHR rats after IP MMP-2 inhibitor
Format: in vivo, rat
Conditions: 5 mg IP, FIG. 7 legend

CNC(=O)[C@H](Cc1ccccc1)NC(=O)[C@H](CC(C)C)[C@H](CSc1cccs1)C(=O)NO [BB-94, Batimastat]
time decreased blood pressure effects were measurable after injection: at least three hours
